No constants are given. Whether binding was seen depends on the method and setting. For part of these data: In cells and extracts the contact can be indirect. Some entries that bind do so weakly or less than the wild type. One block for each substance: values may come before it.
Columns and labels:
[1] = biological target: FGFR1, 3×FLAG-tagged (UniProt P11362); experiment: co-IP; 293T co-transfected; serum-starved 12 h, then complete medium and MB for 2 h; NP40 lysis buffer; IP anti-FLAG, blot anti-EGFR or anti-HA
[2] = biological target: FGFR1 fused to the C-terminal half of luciferase (UniProt P11362); experiment: split reporter; split luciferase in 293T co-transfected with EGFR-C-Luc or FGFR1-C-Luc and hSHP2-N-luc; MB for 6 h
[3] = biological target: synthesized peptide covering Y248-phosphorylated ITSM of human PD-1 (human); experiment: ELISA; phosphopeptide coated at 4 μg/ml; hSHP2-Fc 500 ng/ml added with phosphatase inhibitor cocktail, 1 h at RT; HRP anti-Fc tag antibody; with MB; both purified

binding [1]: binds
Substance: SHP2, HA-tagged (from UniProt Q06124 1-593) (enzyme)

binding [2]: binds
Substance: human SHP2 fused to the N-terminal half of firefly luciferase, in 293T cells (from UniProt Q06124 1-593) (enzyme)

binding [3]: binds
Substance: purified recombinant human SHP2-Fc (from UniProt Q06124 1-593) (Fc fusion)
